Publication PMC10867860
Residue numbers refer to the chain shown, from its start. Names and notes keep the numbering of the source. Results are given in words; binding and its absence hold for the method and conditions named. Some results given as binding are weak or reduced against the parent protein; the word gives no strength.

The chains behind the UniProt entries cited, without tags or fusion partners. Where a name states a change or a piece, a line headed by the entry shows the natural chain unless it says otherwise. A line that says so, or that is headed by a name, gives the form on record, which may keep a tag or linker.
UAF1 (res. 9-677, C-terminal RQKST replaced by a 21-residue extension) (Q8TAF3, form named): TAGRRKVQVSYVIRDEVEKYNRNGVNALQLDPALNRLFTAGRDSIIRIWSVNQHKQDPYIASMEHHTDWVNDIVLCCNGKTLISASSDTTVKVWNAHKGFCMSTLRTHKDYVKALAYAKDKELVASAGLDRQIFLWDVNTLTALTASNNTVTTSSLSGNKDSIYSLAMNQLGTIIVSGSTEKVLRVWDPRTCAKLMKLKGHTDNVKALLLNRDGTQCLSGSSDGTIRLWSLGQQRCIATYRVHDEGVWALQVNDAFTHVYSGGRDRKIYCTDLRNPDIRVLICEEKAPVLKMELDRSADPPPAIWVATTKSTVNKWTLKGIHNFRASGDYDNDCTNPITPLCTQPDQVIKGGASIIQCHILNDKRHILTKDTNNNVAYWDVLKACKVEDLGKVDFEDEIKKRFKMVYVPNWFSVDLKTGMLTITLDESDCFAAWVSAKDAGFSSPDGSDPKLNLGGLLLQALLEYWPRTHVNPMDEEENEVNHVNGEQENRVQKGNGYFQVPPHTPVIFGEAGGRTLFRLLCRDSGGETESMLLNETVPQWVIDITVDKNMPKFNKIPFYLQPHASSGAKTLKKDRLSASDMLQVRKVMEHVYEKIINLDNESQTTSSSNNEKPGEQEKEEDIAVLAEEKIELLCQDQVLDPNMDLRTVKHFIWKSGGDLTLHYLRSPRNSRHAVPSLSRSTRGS

B1: USP1 (res. 21-785, G670A + G671A) (enzyme, UniProt O94782 21-785)
chain: NRLSLKFFQKKETKRALDFTDSQENEEKASEYRASEIDQVVPAAQSSPINCEKRENLLPFVGLNNLGNTCYLNSILQVLYFCPGFKSGVKHLFNIISRKKEALKDEANQKDKGNCKEDSLASYELICSLQSLIISVEQLQASFLLNPEKYTDELATQPRRLLNTLRELNPMYEGYLQHDAQEVLQCILGNIQETCQLLKKEEVKNVAELPTKVEEIPHPKEEMNGINSIEMDSMRHSEDFKEKLPKGNGKRKSDTEFGNMKKKVKLSKEHQSLEENQRQTRSKRKATSDTLESPPKIIPKYISENESPRPSQKKSRVKINWLKSATKQPSILSKFCSLGKITTNQGVKGQSKENECDPEEDLGKCESDNTTNGCGLESPGNTVTPVNVNEVKPINKGEEQIGFELVEKLFQGQLVLRTRCLECESLTERREDFQDISVPVQEDELSKVEESSEISPEPKTEMKTLRWAISQFASVERIVGEDKYFCENCHHYTEAERSLLFDKMPEVITIHLKCFAASGLEFDCYGGGLSKINTPLLTPLKLSLEEWSTKPTNDSYGLFAVVMHSGITISSGHYTASVKVTDLNSLELDKGNFVVDQMCEIGKPEPLNEEEARGVVENYNDEEVSIRVGGNTQPSKVLNKKNVEAIGLLAAQKSKADYELYNKASNPDKVASTAFAENRNSETSDTTGTHESDRNKESSDQTGINISGFENKISYVVQSLKEYEGKWLLFDDSEVKVTEEKDFLNSLSPSTSPTSTPYLLFYKKLERPLSNLEPAVSRHAVPSLSRSTRGS
B2: USP1^D752A (res. 21-785, G670A + G671A) (enzyme, UniProt O94782 21-785)
chain: B1 chain with D732A
B3: USP1^D751N (res. 21-785, G670A + G671A) (enzyme, UniProt O94782 21-785)
chain: B1 chain with D731N
B4: USP1^D751A (res. 21-785, G670A + G671A) (enzyme, UniProt O94782 21-785)
chain: B1 chain with D731A
B5: USP1^D752N (res. 21-785, G670A + G671A) (enzyme, UniProt O94782 21-785)
chain: B1 chain with D732N

molecular target: UAF1 (res. 9-677, C-terminal RQKST replaced by a 21-residue extension) (UniProt Q8TAF3); test: co-purification after co-expression; USP1 (N-terminal His-tag) and UAF1 (N-terminal strep-tag) coexpressed in Sf9 cells and copurified according to Dharadhar et al (2021)

Row | binding | Binder
1 | binds | B1
2 | binds | B2
3 | binds | B3
4 | binds | B4
5 | binds | B5
